In PMC12210952:
No constants are given. Whether binding was seen depends on the method and setting. In cells and extracts the contact can be indirect. Some binding calls cover weakened binding; strength is not graded here. For some assays here: Where a sequence is shown, tags or fusion partners need not be part of it. Blank lines part the entries; values can stand above or below the binder they belong to.

Chains of the proteins cited; added tags and fusions are not shown.
UniProt P13164: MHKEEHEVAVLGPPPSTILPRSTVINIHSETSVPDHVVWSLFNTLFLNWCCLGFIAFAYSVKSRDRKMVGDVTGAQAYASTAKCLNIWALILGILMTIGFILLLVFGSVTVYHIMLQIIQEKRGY

Columns and labels:
IFITM1-YN (human) = IFITM1-YN (human) (UniProt P13164); assay: split reporter; BiFC in living HepG2.215 cells transiently transfected with IFITM1-YN + ABHD16A-YC (control YN+YC), 24 hours, YFP signal by confocal microscope
Flag-IFITM1 (human) = Flag-IFITM1 (human) (UniProt P13164); assay: co-IP; HepG2.215 cells cotransfected for 24 hours; lysate (20 mM Tris 7.5, 150 mM NaCl, 1% Triton X-100, 1% sodium deoxycholate, 0.1% SDS) immunoprecipitated with Flag antibody on Protein A + G magnetic beads, 4°C, 12 hours; blots with Flag and GFP antibodies

binding (IFITM1-YN (human)): binds
B1: ABHD16A-YC (enzyme, UniProt O95870 1-558)
chain: MAKLLSCVLGPRLYKIYRERDSERAPASVPETPTAVTAPHSSSWDTYYQPRALEKHADSILALASVFWSISYYSSPFAFFYLYRKGYLSLSKVVPFSHYAGTLLLLLAGVACLRGIGRWTNPQYRQFITILEATHRNQSSENKRQLANYNFDFRSWPVDFHWEEPSSRKESRGGPSRRGVALLRPEPLHRGTADTLLNRVKKLPCQITSYLVAHTLGRRMLYPGSVYLLQKALMPVLLQGQARLVEECNGRRAKLLACDGNEIDTMFVDRRGTAEPQGQKLVICCEGNAGFYEVGCVSTPLEAGYSVLGWNHPGFAGSTGVPFPQNEANAMDVVVQFAIHRLGFQPQDIIIYAWSIGGFTATWAAMSYPDVSAMILDASFDDLVPLALKVMPDSWRGLVTRTVRQHLNLNNAEQLCRYQGPVLLIRRTKDEIITTTVPEDIMSNRGNDLLLKLLQHRYPRVMAEEGLRVVRQWLEASSQLEEASIYSRWEVEEDWCLSVLRSYQAEHGPDFPWSVGEDMSADGRRQLALFLARKHLHNFEATHCTPLPAQNFQMPWHL

binding (Flag-IFITM1 (human)): binds
B2: ABHD16A-EGFP (enzyme, UniProt O95870 1-558)
chain: B1 chain
